Results published in the supplement of paper PMC4862054.
Most entries show no effect beyond the scatter of the controls.

Assays:
Test in all cases: normalised response (% of control), CellTox Green; higher = less cell death (100 = DMSO, 0 = benzethonium chloride kill control)
Conditions in all cases: incubation time: 72 h
BT-474 = system: BT-474
Description: (§1)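 DSRT, 72 h incubation, CellTox Green / CellTiter-Glo readout. Signal is normalised to DMSO and benzethonium chloride controls. Value is the normalised response at the lowest tested concentration.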

BT-549 = system: BT-549
Description: as §1

CAL-120 = system: CAL-120
Description: as §1

CAL-148 = system: CAL-148
Description: as §1

CAL-51 = system: CAL-51
Description: as §1

CAL-85-1 = system: CAL-85-1
Description: as §1

DU-4475 = system: DU-4475
Description: as §1

HCC1143 = system: HCC1143
Description: as §1

HCC1599 = system: HCC1599
Description: as §1

HCC1937 = system: HCC1937
Description: as §1

HDQ-P1 = system: HDQ-P1
Description: as §1

Hs578T = system: Hs578T
Description: as §1

MDA-MB-231 = system: MDA-MB-231
Description: as §1

MDA-MB-436 = system: MDA-MB-436
Description: as §1

MDA-MB-453 = system: MDA-MB-453
Description: as §1

MDA-MB-468 = system: MDA-MB-468
Description: as §1

MFM-223 = system: MFM-223
Description: as §1

MCF-10A = system: MCF-10A
Description: as §1

| Structure (SMILES) | normalised response (BT-474) [%] | normalised response (BT-549) [%] | normalised response (CAL-120) [%] | normalised response (CAL-148) [%] | normalised response (CAL-51) [%] | normalised response (CAL-85-1) [%] | normalised response (DU-4475) [%] | normalised response (HCC1143) [%] | normalised response (HCC1599) [%] | normalised response (HCC1937) [%] | normalised response (HDQ-P1) [%] | normalised response (Hs578T) [%] | normalised response (MDA-MB-231) [%] | normalised response (MDA-MB-436) [%] | normalised response (MDA-MB-453) [%] | normalised response (MDA-MB-468) [%] | normalised response (MFM-223) [%] | normalised response (MCF-10A) [%] |
| --- | --- | --- | --- | --- | --- | --- | --- | --- | --- | --- | --- | --- | --- | --- | --- | --- | --- | --- |
| N#Cc1ccc(COC[C@H]2O[C@@H](n3c(NCc4ccc(Cl)c(Cl)c4)nc4c(N)ncnc43)[C@H](O)[C@@H]2O)cc1 (1 nM) | 100 | 106 | 99 | 93.7 | 112 | 112 | 102 | 63.2 | 98.8 | 109 | 98 | 114 | 112 | 95.8 | 116 | 110 | 91.6 | – |
| CO[C@H]1/C=C\C=C(/C)C(=O)NC2=CC(=O)C(NCCN(C)C)=C(C[C@@H](C)C[C@H](OC)[C@H](O)[C@@H](C)/C=C(\C)[C@@H]1OC(N)=O)C2=O [Alvespimycin] (0.1 nM) | 103 | 99.7 | 105 | 104 | 69.9 | 102 | 98.7 | 80 | 100 | – | 102 | 106 | 107 | 62.5 | 104 | 97.1 | 94 | 106 |
| O=C(O)CCCCC(CCSCc1ccccc1)SCc1ccccc1 (stereo unspecified) [CPI-613] (1 nM) | 99.1 | 85 | 101 | 94.6 | 99 | 103 | 103 | 117 | 102 | – | 78.5 | 105 | 117 | 106 | 90.8 | 110 | 96.8 | 102 |
| NC(=O)c1cccc2cn(-c3ccc([C@@H]4CCCNC4)cc3)nc12 [MK-4827] (1 nM) | 102 | 95 | 96.3 | 96.1 | 94 | 99.7 | 100 | 109 | 81.3 | – | 85.5 | 108 | 91.2 | 96.1 | 111 | 95.5 | 100 | 79.8 |
| COC(=O)c1ccc2c(c1)NC(=O)/C2=C(\Nc1ccc(N(C)C(=O)CN2CCN(C)CC2)cc1)c1ccccc1 [Nintedanib] (1 nM) | 98.2 | 101 | 102 | 92.7 | 117 | 108 | 102 | 129 | 96.3 | 78.8 | 97.9 | 108 | 114 | 51.2 | 103 | 111 | 102 | – |
| COC(=O)C[C@](O)(CCCC(C)(C)O)C(=O)O[C@@H]1C(OC)=C[C@]23CCCN2CCc2cc4c(cc2[C@H]13)OCO4 [Omacetaxine] (1 nM) | 101 | 91.9 | 101 | 108 | 114 | 106 | 106 | 98.5 | 111 | – | – | 86.3 | 120 | 83.7 | 113 | 98.4 | 97.6 | 107 |
| C/C(=C\c1csc(C)n1)[C@@H]1C[C@@H]2O[C@]2(C)CCC[C@H](C)[C@H](O)[C@@H](C)C(=O)C(C)(C)[C@@H](O)CC(=O)O1 [Patupilone] (0.1 nM) | 102 | 87.2 | 102 | 68 | 102 | 104 | 99 | 104 | 81.1 | 110 | – | 103 | 55.8 | 91.4 | 110 | – | 99.2 | 90.9 |
| CS(=O)(=O)c1ccc(C2=C(c3ccccc3)C(=O)OC2)cc1 [Rofecoxib] (1 nM) | 101 | 92.8 | 106 | 88 | 88.2 | 95.4 | 108 | 127 | 110 | 110 | 86.8 | 73.4 | 120 | 99.8 | 110 | 101 | – | 111 |
| CCC1=C[C@@H]2CN(C1)Cc1c([nH]c3ccccc13)[C@@](C(=O)OC)(c1cc3c(cc1OC)N(C)[C@H]1[C@@](O)(C(=O)OC)[C@H](OC(C)=O)[C@]4(CC)C=CCN5CC[C@]31[C@@H]54)C2 [Vinorelbine] (1 nM) | 97.1 | 101 | 105 | 54.6 | 104 | 94 | 112 | 103 | 111 | – | 105 | 113 | 120 | 98.3 | 101 | 91.4 | 64.6 | 109 |

Only normalised response (CAL-51) [%] and normalised response (BT-549) [%], for 2 of the compounds above:

| Structure (SMILES) | normalised response (CAL-51) [%] | normalised response (BT-549) [%] |
| --- | --- | --- |
| N#Cc1ccc(COC[C@H]2O[C@@H](n3c(NCc4ccc(Cl)c(Cl)c4)nc4c(N)ncnc43)[C@H](O)[C@@H]2O)cc1 (1 nM) | 112 | 106 |
| CO[C@H]1/C=C\C=C(/C)C(=O)NC2=CC(=O)C(NCCN(C)C)=C(C[C@@H](C)C[C@H](OC)[C@H](O)[C@@H](C)/C=C(\C)[C@@H]1OC(N)=O)C2=O [Alvespimycin] (0.1 nM) | 69.9 | 99.7 |
